In patent US20230181638A1, “IMMUNOGENIC PEPTIDES WITH NEW OXIDOREDUCTASE MOTIFS” (IMCYSE SA, priority 2020, published 2023):
Entries after “also recorded” stand apart in the source; their conditions may differ. Part of at least one peptide drawing is inferred or uncertain, most often the ends. Where a SMILES comes first, the peptide text is derived from it.

Tests used:
[1] = system: Experimental Auto-Immune Encephalomyelitis (EAE); assay: prophylactic administration, EAE clinical score in mice; assay type: in vivo, C57BL/6 mice; conditions: for onset of the disease: 30 μg s.c. with Alum, vs Alum group, FIG. 2; for reduction of the peak of the disease or MMS: FIG. 2C, FIG. 4
[2] = system: Experimental Auto-Immune Encephalomyelitis (EAE); assay: therapeutic EAE study, spinal cord histology (H&E, anti-MBP); assay type: in vivo, C57BL/6 mice; conditions: spinal cord sections at end of study, vs Saline control; for level of inflammation (inflammatory foci, H&E): FIG. 8; for level of demyelination (anti-MBP score): FIG. 9
Protocol: At the end of the study, all mice were euthanized, and spines were collected and placed in 10% buffered formalin for histological analysis.
For each spine, one H&E stained slide and one anti-MBP stained slide were prepared and analyzed. Each slide contained a section with samples from lumbar, thoracic and cervical of spinal cord (3 samples). All analysis was performed by a pathologist blinded to the experimental groups and all clinical readouts.
Inflammatory foci of approximately 20 cells were counted in each H&E stained section. When inflammatory infiltrates consisted of more than 20 cells, an estimate was made of how many foci of 20 cells were present.
Demyelination was scored in each anti-MBP (using immunohistochemistry) stained section. In anti-MBP sections, demyelination is observed as conspicuous unstained areas in white matter tracts and is associated with presence of large vacuoles. The demyelination score represents an estimate of demyelinated area for each section as follows: • 0—no demyelination (less than 5% demyelinated area) • 1—5 to 20% demyelinated area • 2—20 to 40% demyelinated area • 3—40 to 60% demyelinated area • 4—60 to 80% demyelinated area • 5—80 to 100% demyelinated area
(§1) AUC, MMS, inflammation and demyelination, and NF-L levels quantification data were analyzed by performing Ordinary one-way ANOVA. Adjustment for multiplicity was performed using Holm-Sidak's method. Significant differences are referred as follows: *p<0.05, **p<0.01, ***p<0.001, ****p<0.0001.
Histological readouts were evaluated by comparing inflammation and demyelination levels for all groups to the negative control (Saline) group.

[3] = system: Neurofilament light (NF-L) protein; assay: therapeutic EAE study, serum neurofilament levels (Simoa NF-light); assay type: in vivo, C57BL/6 mice; conditions: serum on Day 28, vs Saline negative control, FIG. 10
Protocol: On Day 28, blood was collected from all mice into gel dot activator tubes and allowed to dot at room temperature for ˜30 minutes. Blood is then centrifuged at ˜10000 g for 5 minutes. Serum was transferred into Eppendorf tubes and stored at −80° C. until shipment to Quanterix™. Serum Neurofilament light (NF-L) protein levels were quantified using Simoa® NF-light Advantage kit, a digital immunoassay for the quantitative determination of NF-L in serum, plasma and CSF. The used antibodies (Uman Diagnostics, Umeå Sweden) also cross react with murine, bovine and macaque NF-L epitopes and as such, this assay can be used for research with these species. All samples were tested in duplicate at a dilution factor of 40×.
as §1
Axonal damage was also evaluated by comparing NF-L levels for all groups to the negative control (Saline) group.

[4] = system: Experimental Auto-Immune Encephalomyelitis (EAE); assay: therapeutic administration, EAE clinical score in mice; assay type: in vivo; conditions: 30 μg s.c. with Alum on Days 4, 9, 14, 19, vs Saline negative control; for AUC of EAE scores: FIG. 6; for MMS of EAE scores: FIG. 7
Protocol: The study used a total of 64 female C57BL/6 mice (Taconic Biosciences, 9 weeks old on Day 0). Mice were acclimated for 7 days prior to the first injection. Mice were assigned to groups in a balanced manner to achieve similar average weight across the groups at the start of the study.
Dosing of all mice was performed once on each of the days indicated in Table 6, s.c., at a volume of 0.05 mL/site, each mouse receiving injection at two sites, for a total of 0.1 mL/mouse/dosing day. IMCY-0189, IMCY-0453 or IMCY-0455 peptide total close was […] per administration.
For Saline treatment, 0.9% NaCl solution was prepared at each dosing day. Peptide's preparation was performed as described in example 3.
as §1
EAE induction and scoring were performed as described in example 3.
EAE development was evaluated by comparing clinical EAE readouts for all groups to the negative control (Saline) group.

`CC(C)C[C@H](NC(=O)[C@H](Cc1c[nH]cn1)NC(=O)[C@@H](NC(=O)[C@@H](NC(=O)[C@H](CCCNC(=N)N)NC(=O)[C@H](CO)NC(=O)[C@H](Cc1ccccc1)NC(=O)[C@@H]1CCCN1C(=O)[C@H](CO)NC(=O)[C@H](CCCNC(=N)N)NC(=O)[C@H](Cc1ccc(O)cc1)NC(=O)[C@H](Cc1c[nH]c2ccccc12)NC(=O)CNC(=O)[C@H](CS)NC(=O)[C@H](CCCNC(=N)N)NC(=O)[C@H](CS)NC(=O)[C@@H](N)CCCCN)C(C)C)C(C)C)C(=O)N[C@@H](Cc1ccc(O)cc1)C(=O)N[C@@H](CCCNC(=N)N)C(N)=O` [IMCY-0453, KCRC-GWYRSPFSRVVHLYR-NH2] (H-KCRCGWYRSPFSRVVHLYR-NH2) was tested, and the “onset of the disease” value [1] was “delayed”, the “severity of the disease (AUC of the clinical score)” value ([1]; IMCY-0453 vs IMCY-0189, Day 7 to Day 28, FIG. 2B) was “more reduced” and the “reduction of the peak of the disease or MMS” value ([1]; vs Alum control group) was “significant reduction”. The “level of inflammation (inflammatory foci, H&E)” value [2] was “statistically significant reduced level; also recorded: nearly abolished”, the “level of demyelination (anti-MBP score)” value [2] was “statistically significant reduced level; also recorded: nearly abolished” and the “serum NF-L levels” value [3] was “statistically significant reduced”. The disease onset [4] was “statistically significantly improved”, the end score [4] was “statistically significantly improved” and the “AUC of EAE scores” value [4] was “statistically significantly improved”. For the same compound, the “MMS of EAE scores” value [4] was “statistically significantly improved”.

With `CC(C)C[C@H](NC(=O)[C@H](Cc1c[nH]cn1)NC(=O)[C@@H](NC(=O)[C@@H](NC(=O)[C@H](CCCNC(=N)N)NC(=O)[C@H](CO)NC(=O)[C@H](Cc1ccccc1)NC(=O)[C@@H]1CCCN1C(=O)[C@H](CO)NC(=O)[C@H](CCCNC(=N)N)NC(=O)[C@H](Cc1ccc(O)cc1)NC(=O)[C@H](Cc1c[nH]c2ccccc12)NC(=O)CNC(=O)[C@H](CS)NC(=O)[C@H](Cc1ccc(O)cc1)NC(=O)[C@@H]1CCCN1C(=O)[C@H](CS)NC(=O)[C@@H](N)Cc1c[nH]cn1)C(C)C)C(C)C)C(=O)N[C@@H](Cc1ccc(O)cc1)C(=O)N[C@@H](CCCNC(=N)N)C(N)=O` [IMCY-0189, HCPYC-GWYRSPFSRVVHLYR-NH2, reference compound] (H-HCPYCGWYRSPFSRVVHLYR-NH2) the “onset of the disease” value [1] was “delayed”, the “reduction of AUC of the clinical score” value ([1]; vs Alum control group, Day 7 to Day 28, FIG. 3) was “non-statistical significance” and the “reduction of the peak of the disease or MMS” value ([1]; vs Alum control group) was “not observed”. For the same compound, the “level of inflammation (inflammatory foci, H&E)” value [2] was “statistically significant reduced level”, the “level of demyelination (anti-MBP score)” value [2] was “statistically significant reduced level” and the “serum NF-L levels” value [3] was “statistically significant reduced”. The disease onset [4] was “postponed”, the end score [4] was “reduced” and the “AUC of EAE scores” value [4] was “statistically reduced”. The “MMS of EAE scores” value [4] was “statistically reduced”.
